The experiment relates to L1210 leukemia ip in BDF1 mice, survival T/C. Description: NCI In Vivo Anticancer Drug Screen. Data for tumor model L1210 Leukemia (intraperitoneal) in B6D2F1 (BDF1) mice. The following applies: T/C endpoint: mean survival time, higher T/C = longer survival.
The mark [1] stands for this setting: dose: 50.0 mg/kg/injection, schedule: Q01DX009 (ip), vehicle: carboxymethylcellulose (CMC).
Where [2] appears, read: dose: 200.0 mg/kg/injection, schedule: Q04DX003 (ip), vehicle: saline with Tween-80.
[3] abbreviates: dose: 400.0 mg/kg/injection, schedule: Q04DX003 (ip), vehicle: saline with Tween-80.
Setting [4] is: dose: 400.0 mg/kg/injection, schedule: Q01DX009 (ip), vehicle: Klucel (hydroxypropylcellulose) (HPC).
[5] abbreviates: dose: 25.0 mg/kg/injection, schedule: Q01DX009 (ip), vehicle: Klucel (hydroxypropylcellulose) (HPC).
Where [6] appears, read: dose: 50.0 mg/kg/injection, schedule: Q01DX009 (ip), vehicle: Klucel (hydroxypropylcellulose) (HPC).
Setting [7] is: dose: 25.0 mg/kg/injection, schedule: Q01DX009 (ip), vehicle: saline with Tween-80.
[8] abbreviates: dose: 200.0 mg/kg/injection, schedule: Q01DX009 (ip), vehicle: Klucel (hydroxypropylcellulose) (HPC).

The structures appear in SMILES notation. The list shows only some results of the screen, not a fair sample: it is rich in T/C values a quarter to a half above the control, in often repeated tests (any T/C) and in doses without a T/C. Other doses and runs of a compound stand elsewhere. T/C is the treated group as % of the vehicle group. Some entries give survivors of the animals treated and no T/C: the source files T/C as zero there, which appears to mark a toxic dose or a test without result, not a measured value. Some doses without a T/C left all or most animals alive at the check, yet need not have been tolerated: survival well below the control is almost never listed, so the zero probably covers shortened survival too. Survivors were counted at the toxicity check, usually on the fifth day, unless a day is given; later deaths do not show. Schedules are NCI's codes, taken here to give the interval after Q, in days (D) or hours (H), and the number of doses after X. Some entries hold several experiments; the results are listed from low to high. Some schedule codes hold Z or #, which are not explained here. Where survival is the endpoint, this PubChem deposit counts one and a half times the control or more as active, and values a quarter to a half above the control carry no call in these data; other NCI protocols may use other cut-offs. Some T/C values are followed by the survivors on the day toxicity was checked, most often the fifth; without a count, all were alive then. Brackets with × say how often a value occurs here.

For `N#CCC(N)=C(C#N)C#N`, the T/C is 86, 96, 100 % of control (dose: 18.25 mg/kg/injection, schedule: Q01DX015 (ip), vehicle: carboxymethylcellulose (CMC), evaluated on day 5); 86, 96, 100 % of control (dose: 18.25 mg/kg/injection, schedule: Q01DX015 (ip), vehicle: carboxymethylcellulose (CMC), evaluated on day 30); 86, 91, 93, 107 % of control (dose: 37.5 mg/kg/injection, schedule: Q01DX015 (ip), vehicle: carboxymethylcellulose (CMC), evaluated on day 5); 86, 91, 93 % of control (dose: 37.5 mg/kg/injection, schedule: Q01DX015 (ip), vehicle: carboxymethylcellulose (CMC), evaluated on day 30); 86, 93, 100 % of control (2×) (dose: 75.0 mg/kg/injection, schedule: Q01DX015 (ip), vehicle: carboxymethylcellulose (CMC), evaluated on day 5); 86, 93, 100 % of control (dose: 75.0 mg/kg/injection, schedule: Q01DX015 (ip), vehicle: carboxymethylcellulose (CMC), evaluated on day 30). Further, the T/C (dose: 150.0 mg/kg/injection, schedule: Q01DX015 (ip), vehicle: carboxymethylcellulose (CMC), evaluated on day 5) is 87, 89, 91, 93 % of control and the T/C (dose: 150.0 mg/kg/injection, schedule: Q01DX015 (ip), vehicle: carboxymethylcellulose (CMC), evaluated on day 30) was 87, 91, 93 % of control [4 of 6 alive]. The survivor count runs as follows: (dose: 150.0 mg/kg/injection, schedule: Q01DX Z (ip), vehicle: carboxymethylcellulose (CMC)) 0 of 6; (dose: 300.0 mg/kg/injection, schedule: Q01DX015 (ip), vehicle: carboxymethylcellulose (CMC)) 6 of 6; (dose: 400.0 mg/kg/injection, schedule: Q01DX001 (ip), vehicle: carboxymethylcellulose (CMC)) 1 of 4.
Consider `O=P(Oc1ccccc1)(N1CCCCC1)N1CCCCC1`, for which the T/C under setting [1] was 94 and 104 % of control (2×); the T/C (dose: 100.0 mg/kg/injection, schedule: Q01DX009 (ip), vehicle: carboxymethylcellulose (CMC)) is 90 [4 of 6 alive], 91, 93, 94 % of control. Moreover, the survivor count is 3 of 3 under setting [1]; 5 of 6 (dose: 100.0 mg/kg/injection, schedule: Q04DX003 (ip), vehicle: carboxymethylcellulose (CMC)); 3 of 3 and 6 of 6 (dose: 200.0 mg/kg/injection, schedule: Q01DX009 (ip), vehicle: carboxymethylcellulose (CMC)); 3 of 3 and 6 of 6 (dose: 400.0 mg/kg/injection, schedule: Q04DX002 (ip), vehicle: carboxymethylcellulose (CMC)); 2 of 6 (dose: 400.0 mg/kg/injection, schedule: Q04DX003 (ip), vehicle: carboxymethylcellulose (CMC)).
In the case of `CC(N)COCc1ccccc1` (stereo unspecified), the survivor count (dose: 100.0 mg/kg/injection, schedule: Q01DX009 (ip), vehicle: saline) is recorded as 2 of 6; the survivor count under setting [2] is given as 1 of 6; the survivor count under setting [3] is 0 of 6.
In the case of `Cc1cc(C)c(N(C)C(=O)CCC(=O)O)c(C)c1Br`, the survivor count under setting [4] was 1 of 6.
In the case of `Cc1cc(=O)oc2cc(OC(=O)Nc3ccc(F)c(Cl)c3)ccc12`, the survivor count by setting is: under setting [5], 0 of 3; under setting [6], 0 of 3.
For `CC(=O)Nc1nc(Cl)c([N+](=O)[O-])c(SCc2ccccc2)n1`, the survivor count runs as follows: under setting [7], 5 of 6; (dose: 50.0 mg/kg/injection, schedule: Q01DX009 (ip), vehicle: saline with Tween-80) 6 of 6; (dose: 100.0 mg/kg/injection, schedule: Q01DX009 (ip), vehicle: saline with Tween-80) 6 of 6; (dose: 200.0 mg/kg/injection, schedule: Q01DX009 (ip), vehicle: saline with Tween-80) 1 of 6; under setting [3], 2 of 6.
Consider `Nc1nc(N)c(-c2ccc(Cl)c(Cl)c2)c(/C=C/C=C/c2cccnc2)n1`, for which, under setting [7], the T/C was 126 % of control.
`O=S(=O)(Cl)OC1C2COC(O2)C(OS(=O)(=O)Cl)C1OS(=O)(=O)Cl` (stereo unspecified): the survivor count reads like this: (dose: 100.0 mg/kg/injection, schedule: Q04DX003 (ip), vehicle: saline with Tween-80) 6 of 6; under setting [2], 6 of 6; under setting [3], 6 of 6.
As for `C#CCN(CC#C)C(=O)Nc1ccc(Cl)cc1`, the survivor count (dose: 200.0 mg/kg/injection, schedule: Q04DX002 (ip), vehicle: saline with Tween-80) is 2 of 3 and the survivor count (dose: 400.0 mg/kg/injection, schedule: Q04DX002 (ip), vehicle: saline with Tween-80) is given as 0 of 3.
For `Oc1ccc(-c2cc(O)c(-c3ccc(O)cc3)cc2O)cc1`, the survivor count by setting is: (dose: 200.0 mg/kg/injection, schedule: Q01DX009 (ip), vehicle: saline) 3 of 6; (dose: 400.0 mg/kg/injection, schedule: Q01DX009 (ip), vehicle: saline) 0 of 6.
`CC1=CC(=O)NP(=O)(OC2CCCCC2)N1` (stereo unspecified): the survivor count (dose: 50.0 mg/kg/injection, schedule: Q01DX005 (ip), vehicle: sodium bicarbonate) is recorded as 2 of 3 and the survivor count (dose: 200.0 mg/kg/injection, schedule: Q01DX005 (ip), vehicle: sodium bicarbonate) was 3 of 3.
As for `CN(C)C(=N)CSS(=O)(=O)O`, where the note is “dose: 400.0 mg/kg/injection, schedule: Q04DX002 (ip), vehicle: Klucel (hydroxypropylcellulose) (HPC)”, the survivor count is 0 of 3.
For `Cc1nc(N)[nH]c(=O)c1CCCNc1ccc(/C=C/C2(CCl)OCCO2)cc1`, the survivor count (dose: 100.0 mg/kg/injection, schedule: Q01DX Z (ip), vehicle: carboxymethylcellulose (CMC)) is 6 of 6.
For the compound `CC(=O)NN(c1ccccc1)c1ccccc1`, the survivor count under setting [4] is reported as 5 of 6.
Turning to `CCC(Br)C(=O)Nc1c(C)cccc1Cl` (stereo unspecified), the survivor count runs as follows: under setting [8], 6 of 6; under setting [4], 6 of 6.
Regarding `CN(C)N=Nc1ccc2[nH]ncc2c1`, the T/C was 130 % of control (dose: 12.5 mg/kg/injection, schedule: Q01DX009 (ip), vehicle: Klucel (hydroxypropylcellulose) (HPC)); 128 % of control (dose: 22.0 mg/kg/injection, schedule: Q01DX009 (ip), vehicle: Klucel (hydroxypropylcellulose) (HPC)); 137 % of control under setting [5]; 149 % of control (dose: 33.0 mg/kg/injection, schedule: Q01DX009 (ip), vehicle: Klucel (hydroxypropylcellulose) (HPC)); 126 and 136 % of control under setting [6]. Also, the survivor count (dose: 75.0 mg/kg/injection, schedule: Q01DX009 (ip), vehicle: Klucel (hydroxypropylcellulose) (HPC)) is on record as 6 of 6; the survivor count (dose: 100.0 mg/kg/injection, schedule: Q01DX009 (ip), vehicle: Klucel (hydroxypropylcellulose) (HPC)) was 1 of 6; the survivor count (dose: 200.0 mg/kg/injection, schedule: Q01DX001 (ip), vehicle: Klucel (hydroxypropylcellulose) (HPC)) is given as 0 of 6; the survivor count (dose: 400.0 mg/kg/injection, schedule: Q01DX001 (ip), vehicle: Klucel (hydroxypropylcellulose) (HPC)) is given as 0 of 6.
Consider `CCCCCCCC(=O)N(C)OC`, for which the survivor count under setting [8] is 4 of 6.
In the case of `O=C(NNc1ccccc1)c1ccccc1`, the survivor count under setting [4] was 1 of 6.
`CC1=Nc2ccccc2/C1=C\c1c(C)[nH]c2ccccc12`: the survivor count is, setting by setting: (dose: 100.0 mg/kg/injection, schedule: Q01DX009 (ip), vehicle: acetone) 3 of 6; (dose: 200.0 mg/kg/injection, schedule: Q01DX009 (ip), vehicle: acetone) 0 of 6; (dose: 400.0 mg/kg/injection, schedule: Q04DX003 (ip), vehicle: acetone) 2 of 6.
Regarding `CCCCCCCN(CCCCCCC)CC(O)c1cc2ccccc2c2cnccc12` (stereo unspecified), where the note is “dose: 400.0 mg/kg/injection, schedule: Q01DX009 (ip), vehicle: other”, the survivor count was 5 of 6.
On to `CC(=O)OC1CC(OC2C(O)CC(OC3C(O)CC(OC4CCC5(C)C(CCC6C5CC(O)C5(C)C(C7=CC(=O)OC7)CCC65O)C4)OC3C)OC2C)OC(C)C1O` (stereo unspecified) (tested in a mixture with another compound), for which the survivor count (dose: 400.0 mg/kg/injection, schedule: Q01DX001 (sc), vehicle: steroid suspending solution) is 1 of 6.
As for `c1ccc(-c2oc3ccc4ccccc4c3c2-c2ccc(OCCN3CCCC3)cc2)cc1`, the survivor count (dose: 160.0 mg/kg/injection, schedule: Q01DX009 (ip), vehicle: Klucel (hydroxypropylcellulose) (HPC)) is recorded as 5 of 6.

Source of the values: PubChem BioAssay AID248 (DTP/NCI, 2004).
